# Experimental data taken from the supplement of paper PMC8728848.
# The list shows a part of the results.
# B1: SynCAM (Mus musculus) (protein)
# chain: MASAVLPSGSQCAAAAAVAAAAAPPGLRLRLLLLLLSAAALIPTGDGQNLFTKDVTVIEGEVATISCQVNKSDDSVIQLLNPNRQTIYFRDFRPLKDSRFQLLNFSSSELKVSLTNVSISDEGRYFCQLYTDPPQESYTTITVLVPPRNLMIDIQKDTAVEGEEIEVNCTAMASKPATTIRWFKGNKELKGKSEVEEWSDMYTVTSQLMLKVHKEDDGVPVICQVEHPAVTGNLQTQRYLEVQYKPQVHIQMTYPLQGLTREGDAFELTCEAIGKPQPVMVTWVRVDDEMPQHAVLSGPNLFINNLNKTDNGTYRCEASNIVGKAHSDYMLYVYDPPTTIPPP
# Key:
# Assay in all cases: glycan array binding signal (z-score within array); higher = stronger binding
# Settings in all cases: glycan notation: IUPAC condensed, linker removed
# Gal3S(b1-4)Glc = target: Gal3S(b1-4)Glc
# Method in brief: (§1)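 From the Consortium for Functional Glycomics database, 3228 arrays were curated, keeping only those whose protein sequence was available. Binding is given as a within-array Z-score averaged across arrays sharing a protein sequence and across linkers. Negative Z-scores can be read as non-binding.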
# Gal3S(b1-4)Glc6S = target: Gal3S(b1-4)Glc6S
# Method in brief: as §1
# Gal3S(b1-4)GlcNAc = target: Gal3S(b1-4)GlcNAc
# Method in brief: as §1
# [1] = target: Gal3S(b1-4)[Fuc(a1-3)]Glc6S
# Method in brief: as §1
# [2] = target: Gal3S(b1-4)[Fuc(a1-3)]GlcNAc
# Method in brief: as §1
# [3] = target: Gal3S(b1-4)[Fuc(a1-3)]GlcNAc6S
# Method in brief: as §1
# Gal3S4S(b1-4)GlcNAc = target: Gal3S4S(b1-4)GlcNAc
# Method in brief: as §1
# Gal3S6S(b1-4)GlcNAc = target: Gal3S6S(b1-4)GlcNAc
# Method in brief: as §1
# Gal3S6S(b1-4)GlcNAc6S = target: Gal3S6S(b1-4)GlcNAc6S
# Method in brief: as §1
# Gal4S(b1-4)GlcNAc = target: Gal4S(b1-4)GlcNAc
# Method in brief: as §1
# Gal4S6S(b1-4)GlcNAc = target: Gal4S6S(b1-4)GlcNAc
# Method in brief: as §1
# Gal6P(b1-4)GlcNAc = target: Gal6P(b1-4)GlcNAc
# Method in brief: as §1
# Gal6S(b1-3)GlcNAc = target: Gal6S(b1-3)GlcNAc
# Method in brief: as §1
# Gal6S(b1-3)GlcNAc6S = target: Gal6S(b1-3)GlcNAc6S
# Method in brief: as §1
# Gal6S(b1-4)Glc = target: Gal6S(b1-4)Glc
# Method in brief: as §1
# Gal6S(b1-4)Glc6S = target: Gal6S(b1-4)Glc6S
# Method in brief: as §1
# Gal6S(b1-4)GlcNAc = target: Gal6S(b1-4)GlcNAc
# Method in brief: as §1
# Gal6S(b1-4)GlcNAc6S = target: Gal6S(b1-4)GlcNAc6S
# Method in brief: as §1
# GalNAc(a1-3)Gal = target: GalNAc(a1-3)Gal
# Method in brief: as §1
# GalNAc(a1-3)GalNAc = target: GalNAc(a1-3)GalNAc
# Method in brief: as §1
# [4] = target: GalNAc(a1-3)GalNAc(b1-3)Gal(a1-4)Gal(b1-4)Glc
# Method in brief: as §1
# [5] = target: GalNAc(a1-3)GalNAc(b1-3)Gal(a1-4)Gal(b1-4)GlcNAc
# Method in brief: as §1
# GalNAc(b1-3)Gal = target: GalNAc(b1-3)Gal
# Method in brief: as §1
# [6] = target: GalNAc(b1-3)Gal(a1-4)Gal(b1-4)GlcNAc
# Method in brief: as §1
# [7] = target: GalNAc(b1-3)Gal(a1-4)Gal(b1-4)GlcNAc(b1-3)Gal(b1-4)Glc
# Method in brief: as §1
# [8] = target: GalNAc(b1-3)Gal(a1-6)Gal(b1-4)Glc
# Method in brief: as §1
# GalNAc(b1-3)GalNAc = target: GalNAc(b1-3)GalNAc
# Method in brief: as §1
# GalNAc(b1-3)GlcNAc = target: GalNAc(b1-3)GlcNAc
# Method in brief: as §1
# GalNAc(b1-4)Gal(b1-4)Glc = target: GalNAc(b1-4)Gal(b1-4)Glc
# Method in brief: as §1
# GalNAc(b1-4)GlcNAc = target: GalNAc(b1-4)GlcNAc
# Method in brief: as §1
# [9] = target: GalNAc(b1-4)GlcNAc(b1-2)Man
# Method in brief: as §1
# [10] = target: GalNAc(b1-4)GlcNAc(b1-2)Man(a1-3)[GalNAc(b1-4)GlcNAc(b1-2)Man(a1-6)]Man(b1-4)GlcNAc(b1-4)GlcNAc
# Method in brief: as §1
# [11] = target: GalNAc(b1-4)GlcNAc(b1-3)GalNAc(b1-4)GlcNAc
# Method in brief: as §1
# GalNAc(b1-4)GlcNAc6S = target: GalNAc(b1-4)GlcNAc6S
# Method in brief: as §1
# GalNAc(b1-6)GalNAc = target: GalNAc(b1-6)GalNAc
# Method in brief: as §1
# GalNAc3S(b1-4)GlcNAc = target: GalNAc3S(b1-4)GlcNAc
# Method in brief: as §1
# GalNAc3S(b1-4)GlcNAc3S = target: GalNAc3S(b1-4)GlcNAc3S
# Method in brief: as §1
binder,measurement,setting,value
B1,glycan array binding signal (z-score),Gal3S(b1-4)Glc,1.95
same,glycan array binding signal (z-score),Gal3S(b1-4)Glc6S,1.42
same,glycan array binding signal (z-score),Gal3S(b1-4)GlcNAc,0.193
same,glycan array binding signal (z-score),[1],3.97
same,glycan array binding signal (z-score),[2],0.274
same,glycan array binding signal (z-score),[3],1.22
same,glycan array binding signal (z-score),Gal3S4S(b1-4)GlcNAc,1.07
same,glycan array binding signal (z-score),Gal3S6S(b1-4)GlcNAc,2.56
same,glycan array binding signal (z-score),Gal3S6S(b1-4)GlcNAc6S,2.69
same,glycan array binding signal (z-score),Gal4S(b1-4)GlcNAc,0.837
same,glycan array binding signal (z-score),Gal4S6S(b1-4)GlcNAc,-0.455
same,glycan array binding signal (z-score),Gal6P(b1-4)GlcNAc,-0.555
same,glycan array binding signal (z-score),Gal6S(b1-3)GlcNAc,0.58
same,glycan array binding signal (z-score),Gal6S(b1-3)GlcNAc6S,-0.219
same,glycan array binding signal (z-score),Gal6S(b1-4)Glc,-0.141
same,glycan array binding signal (z-score),Gal6S(b1-4)Glc6S,1.69
same,glycan array binding signal (z-score),Gal6S(b1-4)GlcNAc,0.766
same,glycan array binding signal (z-score),Gal6S(b1-4)GlcNAc6S,0.137
same,glycan array binding signal (z-score),GalNAc(a1-3)Gal,-0.173
same,glycan array binding signal (z-score),GalNAc(a1-3)GalNAc,1.08
same,glycan array binding signal (z-score),[4],-0.146
same,glycan array binding signal (z-score),[5],-0.889
same,glycan array binding signal (z-score),GalNAc(b1-3)Gal,-0.352
same,glycan array binding signal (z-score),[6],2.45
same,glycan array binding signal (z-score),[7],-0.598
same,glycan array binding signal (z-score),[8],-0.163
same,glycan array binding signal (z-score),GalNAc(b1-3)GalNAc,-0.452
same,glycan array binding signal (z-score),GalNAc(b1-3)GlcNAc,-0.132
same,glycan array binding signal (z-score),GalNAc(b1-4)Gal(b1-4)Glc,-0.187
same,glycan array binding signal (z-score),GalNAc(b1-4)GlcNAc,2.71
same,glycan array binding signal (z-score),[9],0.118
same,glycan array binding signal (z-score),[10],-0.617
same,glycan array binding signal (z-score),[11],-0.925
same,glycan array binding signal (z-score),GalNAc(b1-4)GlcNAc6S,-0.392
same,glycan array binding signal (z-score),GalNAc(b1-6)GalNAc,0.335
same,glycan array binding signal (z-score),GalNAc3S(b1-4)GlcNAc,-0.566
same,glycan array binding signal (z-score),GalNAc3S(b1-4)GlcNAc3S,0.408

# Reformatted as tab-separated lines: part of the list above
binder	measurement	setting	value
B1	glycan array binding signal (z-score)	[2]	0.274
same	glycan array binding signal (z-score)	[3]	1.22
